The assay addresses GST fusion protein of PP2A C-subunit (UniProt P63330). Kind of assay: pull-down; GST-PP2A C-subunit or GST alone immobilised on glutathione agarose; incubated 1 hr with cell extracts (2 mg) of Rfz1-expressing F9 cells; washed with PBS with 0.5% NP-40; blot with anti-Dvl2; only the target purified.

Sequences of proteins named here, by UniProt entry; tags and fusion partners are left off. A change or cut given only in a name is not applied to a line headed by its entry.
UniProt P63330: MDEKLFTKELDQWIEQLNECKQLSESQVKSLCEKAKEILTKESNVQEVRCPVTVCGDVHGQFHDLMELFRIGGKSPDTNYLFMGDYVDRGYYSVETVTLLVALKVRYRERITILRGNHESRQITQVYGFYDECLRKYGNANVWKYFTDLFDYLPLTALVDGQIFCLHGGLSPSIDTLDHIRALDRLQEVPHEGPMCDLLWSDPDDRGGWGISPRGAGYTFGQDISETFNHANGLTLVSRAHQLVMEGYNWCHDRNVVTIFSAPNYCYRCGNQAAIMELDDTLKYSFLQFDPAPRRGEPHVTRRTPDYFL

Results are given in words; binding and its absence hold for the method and conditions named. Binding seen in cells or lysates may run through a third protein. A result given as binding can be weak or reduced; the word gives no strength.

B1: Dishevelled-2 (protein, UniProt Q60838 1-736)
chain: MAGSSAGGGGVGETKVIYHLDEEETPYLVKIPVPAERITLGDFKSVLQRPAGAKYFFKSMDQDFGVVKEEISDDNARLPCFNGRVVSWLVSSDTPQPEVAPPAHESRTELVPPPPPLPPLPPERTSGIGDSRPPSFHPNVSSSHENLEPETETESVVSLRRDRPRRRDSSEHGAGGHRPGGPSRLERHLAGYESSSTLMTSELESTSLGDSDEDDTMSRFSSSTEQSSASRLLKRHRRRRKQRPPRMERTSSFSSVTDSTMSLNIITVTLNMEKYNFLGISIVGQSNERGDGGIYIGSIMKGGAVAADGRIEPGDMLLQVNDMNFENMSNDDAVRVLRDIVHKPGPIVLTVAKCWDPSPQAYFTLPRNEPIQPIDPAAWVSHSAALTGAFPAYPGSSSMSTITSGSSLPDGCEGRGLSVHMDMASVTKAMAAPESGLEVRDRMWLKITIPNAFLGSDVVDWLYHHVEGFPERREARKYASGLLKAGLIRHTVNKITFSEQCYYVFGDLSGGCESYLVNLSLNDNDGSSGASDQDTLAPLPGATPWPLLPTFSYQYPAPHPYSPQPPPYHELSSYTYGGGSASSQHSEGSRSSGSTRSDGGAGRTGRPEERAPESKSGSGSESELSSRGGSLRRGGEPGGTGDGGPPPSRGSTGAPPNLRALPGLHPYGAPSGMALPYNPMMVVMMPPPPPPVSTAVQPPGAPPVRDLGSVPPELTASRQSFHMAMGNPSEFFVDVM
On to B1, for which the binding entry is recorded as “binds”.
